# Source: the supplement of paper PMC12889115
# The other results are listed elsewhere or left out. Values are raw readings; no control value is given beside them.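 First-pass screen: polymyxin B was added at a level that permeabilizes the Salmonella outer membrane while sparing the inner membrane. DMSO wells, with and without polymyxin B, defined maximum growth. Because plates differed from one another, each plate's data were ranked separately and the compounds with the lowest OD600 were carried forward as hits.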
# System: Salmonella enterica serovar Typhimurium SL1344
# Assay: bacterial growth OD600 after 18 h with compound and polymyxin B; higher = more bacterial growth (less inhibition)
# Settings: 50 µM, Mueller-Hinton broth
Structure (SMILES),bacterial growth OD600 (polymyxin B 0.75 µg/mL),bacterial growth OD600 (polymyxin B 1 µg/mL)
CC(C)CCCC1CN(C(=O)c2cnc[nH]2)CCO1 (stereo not given),0.852,
Cc1ncccc1C(=O)N1CCC(C2CCN(c3ncccn3)CC2)C1 (stereo not given),,0.994
O=C(c1cn(C2CCCCC2)nn1)N(CCO)Cc1ccccc1,,0.814
COC(=O)[C@@H](NC(=O)C1CCCN1c1nc(C)c2ccc(S(C)(=O)=O)cc2n1)C(C)C (stereo not given in full),0.942,
CCC1CN(Cc2ccc(C#CC(C)(C)O)cc2)Cc2cc(OC)ccc2O1 (stereo not given),0.042,
COCc1ccc(C(=O)N2CCCC(CCc3ccc(F)cc3F)C2)o1 (stereo not given),0.643,
CCN1C(=O)CC(CC(=O)N(C)CCc2cnn(C)c2)(c2cccc(C(F)(F)F)c2)C1=O (stereo not given),0.819,
CC(C)CC(=O)Nc1ccnn1C1CCN(Cc2ccc3c(c2)CCO3)CC1,,0.808
CN1CCCC2(CCN(C(=O)c3cc4c(s3)CCCCC4)C2)C1=O (stereo not given),,0.889
Cc1ccc(N2CCN(C(=O)CC3C(=O)NCCN3Cc3cccs3)CC2)c(C)c1 (stereo not given),,0.779
COc1ccccc1Oc1ncccc1CNC(=O)C1(C)CC1,0.765,
CC1=C(C(=O)NCc2nc(-c3ccccc3NC(=O)c3ccccc3)oc2C)OCCO1,0.827,
COc1ccc2c(C)nc(N3CCCC(C(=O)NCc4cccc(C)c4)C3)nc2c1 (stereo not given),0.008,
Cc1nonc1CN(C)C(=O)CC(c1cccc(O)c1)c1ccccc1Cl (stereo not given),,0.593
O=C(c1ccc(N2CCC(NCC3(c4ccccc4)CCCC3)CC2)cc1)N1CCCC(CO)C1 (stereo not given),0.844,
CCOC(=O)N1CCC(NC(=O)C2CC23CCN(C(=O)c2cc4ccccc4n2C)CC3)CC1 (stereo not given),0.857,
COc1ncc(CN2CCC(C3CCN(CC(C)(C)C)C3)CC2)cn1 (stereo not given),0.79,
CCOc1cccc(CN2CCc3nnc(C(CC(C)C)NC(C)=O)n3CC2)c1O (stereo not given),0.808,
O=C(CCN1CCCCO1)NCc1cccnc1N1CCCCCCC1,,0.955
COC(=O)c1cc(CNC(=O)c2ccc(C)c(N3CCNC3=O)c2)cc(NC(=O)C2CCCCC2)c1,0.883,
CN(C)CC(C)(O)c1ccc2c(c1)CN(Cc1cccc(C(F)(F)F)c1)CCO2 (stereo not given),0.82,
CC1(C(=O)N2CCC3(CCCN(Cc4cccc(F)c4F)C3=O)C2)CC1 (stereo not given),,0.772
Cn1cc(CCC(=O)NC2CC(=O)N(Cc3cccc4ccccc34)C2)cn1 (stereo not given),,1.01
Cc1ccc(-n2cc([C@@H]3C[C@H]4CN(C5CCCC5)C(=O)[C@]45CCCN35)cn2)cc1,,1.08
CN(Cc1csc(-c2cccs2)n1)C(=O)c1cn(C2CC2)cc(C(=O)NC2CCCCC2)c1=O,0.699,
CCS(=O)(=O)N1CCC2(CCCN(Cc3ccc(F)c(F)c3)C2=O)C1 (stereo not given),,0.952
CCS(=O)(=O)c1ncc(CN(C)Cc2nc3c(s2)CCCC3)n1CCOC,,1.14
CCCc1ccc2oc(C(=O)N3CCN(CC(=O)NC(C)C)CC3)c(C)c2c1,,0.752
CSc1ccc(-c2nc(CN3CCN(c4ccc(Cl)cn4)CC3)c(C)o2)cc1,,0.538
CC(C)N1CCN(Cc2cn(Cc3ccccc3)nc2-c2ccc3c(c2)OCO3)CC1,0.9,

# Laid out differently: results already given
Structure (SMILES)	bacterial growth OD600 (polymyxin B 0.75 µg/mL)	bacterial growth OD600 (polymyxin B 1 µg/mL)
CCCc1ccc2oc(C(=O)N3CCN(CC(=O)NC(C)C)CC3)c(C)c2c1		0.752
CSc1ccc(-c2nc(CN3CCN(c4ccc(Cl)cn4)CC3)c(C)o2)cc1		0.538
